Consider 31 molecules from the supplement of paper PMC12889115.

The assay concerns Salmonella enterica serovar Typhimurium SL1344. Kind of assay: bacterial growth OD600 after 18 h with compound and polymyxin B; higher = more bacterial growth (less inhibition). The following applies: 50 µM, Mueller-Hinton broth.

Each structure is given as a SMILES string. Some of the results follow. Values are raw readings; no control value is given beside them.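 In the initial screen, polymyxin B was used at a concentration that permeabilizes Salmonella's outer membrane but not its inner membrane. Maximum growth was set by DMSO wells with or without polymyxin B. Since plates varied, data were ranked per plate, and compounds giving the lowest OD600 advanced as hits.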

With `COc1ccc(-c2noc(CN3CCCC(C(=O)c4cccnc4)C3)n2)c(OC)c1OC` (stereo unspecified), the “bacterial growth OD600” value (polymyxin B 1 µg/mL) worked out at 0.991.

For the molecule `CC(NC1CCN(c2ccc(C(=O)N(C)C)cc2)CC1)c1ccc(Cl)cc1` (stereo unspecified), the “bacterial growth OD600” value (polymyxin B 0.75 µg/mL) was determined as 0.612.

For `CCS(=O)(=O)c1ncc(CN2CCCC(C)C2)n1CCCc1ccccc1` (stereo unspecified), the “bacterial growth OD600” value (polymyxin B 1 µg/mL) was 0.002.

In the case of `CCC(O)CNC(=O)C1CCN(c2nc(-c3ccccc3)nc3c2CCC3)CC1` (stereo unspecified), the “bacterial growth OD600” value (polymyxin B 1 µg/mL) was 0.94.

As to `C=CCOc1ccccc1CNC1COc2c(cccc2OC)C1` (stereo unspecified), the “bacterial growth OD600” value (polymyxin B 0.75 µg/mL) was determined as 0.725.

In the case of `CC(=O)NCC(=O)N1CCCC(C(=O)c2ccc3c4c(cccc24)CC3)C1` (stereo unspecified), the “bacterial growth OD600” value (polymyxin B 1 µg/mL) came to 0.798.

As for `COc1cccc(-c2ccc(NC(=O)C3CCCN(Cc4cccnc4)C3)cc2)c1` (stereo unspecified), the “bacterial growth OD600” value (polymyxin B 1 µg/mL) was 0.895.

Take `CC(C)=CC(=O)NCCN1Cc2ccccc2OC(c2ccccc2F)C1` (stereo unspecified): the “bacterial growth OD600” value (polymyxin B 0.75 µg/mL) was determined as 0.044.

With `CC(Cn1cncn1)NCc1cn(C)nc1-c1ccc(C2CCCCC2)cc1` (stereo unspecified), under “polymyxin B 1 µg/mL”, the “bacterial growth OD600” value worked out at 0.011.

Turning to `c1coc(CN2CCC(NC3CCCN(c4nc5ccccc5s4)C3)CC2)c1` (stereo unspecified), where the note is “polymyxin B 1 µg/mL”, the “bacterial growth OD600” value was determined as 1.1.

Take `Cc1c(C(=O)N(C)C(C)C)sc2ncnc(NC[C@H]3C[C@@H]4C=C[C@H]3C4)c12`: the “bacterial growth OD600” value (polymyxin B 0.75 µg/mL) is 0.011.

Turning to `Cc1ccccc1N1CCN(c2ncccc2CNC(=O)C2CCCCO2)CC1` (stereo unspecified), the “bacterial growth OD600” value (polymyxin B 1 µg/mL) worked out at 0.082.

On to `COc1ccccc1CN(C)C(=O)c1cc(COc2cccc(F)c2)[nH]n1`, for which, under “polymyxin B 1 µg/mL”, the “bacterial growth OD600” value came to 0.742.

As for `O=C1CCC(C(=O)N2CCCCCCC2)CN1CCN1CCOCC1` (stereo unspecified), the “bacterial growth OD600” value (polymyxin B 1 µg/mL) is 1.26.

In the case of `COc1cc(NC(=O)CCC2CCCN(C(=O)c3c[nH]nc3C)C2)cc(OC)c1` (stereo unspecified), the “bacterial growth OD600” value (polymyxin B 1 µg/mL) was found to be 0.932.

As to `COc1cc(=O)n2c(c1C(=O)NCc1ccc3c(c1)OCO3)CCN(C(=O)CCC1CCCC1)CC2`, the “bacterial growth OD600” value (polymyxin B 0.75 µg/mL) is 0.82.

In the case of `Cc1ccccc1C(=O)N1CCCC(N2CCN(c3ccccc3C)CC2)C1` (stereo unspecified), the “bacterial growth OD600” value (polymyxin B 1 µg/mL) worked out at 0.865.

Turning to `COc1ccc(O)c(CN2CCCC(CCC(=O)NCc3ccc(OC)cc3OC)C2)c1` (stereo unspecified), the “bacterial growth OD600” value (polymyxin B 0.75 µg/mL) came out at 0.781.

As for `COCC1CCN(C(=O)C2CCC(=O)N(Cc3cccc(C(F)(F)F)c3)C2)CC1` (stereo unspecified), the “bacterial growth OD600” value (polymyxin B 1 µg/mL) was 0.982.

As for `COc1cccc(-c2cnnc(N(C)Cc3nc(C)c[nH]3)n2)c1`, the “bacterial growth OD600” value (polymyxin B 0.75 µg/mL) was 0.844.

Regarding `COCCc1noc(-c2ccc(N[C@H]3CCCCNC3=O)nc2)n1`, for the setting “polymyxin B 1 µg/mL”, the “bacterial growth OD600” value amounted to 1.04.

For the molecule `Cc1cc(C)c(C(=O)N2CCCC(Nc3ccc(F)c(F)c3)C2)o1` (stereo unspecified), the “bacterial growth OD600” value (polymyxin B 1 µg/mL) was 0.678.

Consider `COCC(=O)Nc1cnn(-c2cccc(C(=O)N3CCC(c4ccccc4F)C3)c2)c1` (stereo unspecified), for which, where the note is “polymyxin B 0.75 µg/mL”, the “bacterial growth OD600” value is 0.699.

As for `COc1ccc(CNC(=O)CCC2(Cc3ccc(F)c(OC)c3)CCC(=O)N2)c(OC)c1` (stereo unspecified), the “bacterial growth OD600” value (polymyxin B 0.75 µg/mL) worked out at 0.814.

For the molecule `CC(C)CN(C)CC1(O)CCCN(CC(C)(C)C)C1=O` (stereo unspecified), for the setting “polymyxin B 0.75 µg/mL”, the “bacterial growth OD600” value stood at 0.807.

Regarding `COCCN1CCCC2(CCN(Cc3cccc(O)c3)C2)C1=O` (stereo unspecified), where the note is “polymyxin B 0.75 µg/mL”, the “bacterial growth OD600” value worked out at 0.826.

For `O=C(c1csc2nc(-c3cccc(C(F)(F)F)c3)cn12)N1CCCC1`, the “bacterial growth OD600” value (polymyxin B 1 µg/mL) came out at 1.19.

As for `COc1ccc(/C=C/C(=O)N(Cc2ccncc2)Cc2cccc(OCCc3ccc(F)cc3)c2)cc1`, the “bacterial growth OD600” value (polymyxin B 0.75 µg/mL) was -0.001.

Consider `COc1ccc(F)c(CC2(CCC(=O)N3CCCN(c4ncccn4)CC3)CCC(=O)N2)c1` (stereo unspecified), for which the “bacterial growth OD600” value (polymyxin B 0.75 µg/mL) was 0.81.

Take `COc1ccccc1N1C[C@@H]2C[C@@H](c3ccco3)N3CCC[C@@]23C1=O`: under “polymyxin B 0.75 µg/mL”, the “bacterial growth OD600” value turned out to be 0.798.

`CN(CCCCN1CCOCC1)c1nc2nonc2nc1N1CCCC1`: under “polymyxin B 0.75 µg/mL”, the “bacterial growth OD600” value was found to be 0.834.
